Source: PMC4499137
Results are given in words; binding and its absence hold for the method and conditions named. For some of these results: Binding seen in cells or lysates may run through a third protein. Some entries that bind do so weakly or less than the wild type. For some of these results: Tags and fused reporters may be left off the sequences shown.

Protein sequences, listed by entry. Tags and fused reporters are not part of them.
UniProt Q9BQ67: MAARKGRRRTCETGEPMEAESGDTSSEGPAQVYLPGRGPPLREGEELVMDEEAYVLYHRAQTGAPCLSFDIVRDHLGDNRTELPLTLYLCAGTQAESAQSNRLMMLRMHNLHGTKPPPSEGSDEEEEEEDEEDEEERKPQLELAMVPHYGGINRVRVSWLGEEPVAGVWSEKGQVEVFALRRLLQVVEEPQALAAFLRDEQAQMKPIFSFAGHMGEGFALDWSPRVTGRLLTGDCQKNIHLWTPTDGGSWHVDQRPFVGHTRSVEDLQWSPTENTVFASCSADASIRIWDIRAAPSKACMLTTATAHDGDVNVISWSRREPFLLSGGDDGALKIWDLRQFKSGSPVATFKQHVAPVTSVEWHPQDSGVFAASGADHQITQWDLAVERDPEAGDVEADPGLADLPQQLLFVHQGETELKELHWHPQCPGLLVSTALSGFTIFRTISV

Experiments:
[1] = biological target: T1, endogenous CDC6 (human (endogenous in HEK293T)) (UniProt Q99741); experiment: co-IP; nuclear extracts from HEK293T cells immunoprecipitated with anti-CDC6 antibody; immunoblotting
T1 sequence: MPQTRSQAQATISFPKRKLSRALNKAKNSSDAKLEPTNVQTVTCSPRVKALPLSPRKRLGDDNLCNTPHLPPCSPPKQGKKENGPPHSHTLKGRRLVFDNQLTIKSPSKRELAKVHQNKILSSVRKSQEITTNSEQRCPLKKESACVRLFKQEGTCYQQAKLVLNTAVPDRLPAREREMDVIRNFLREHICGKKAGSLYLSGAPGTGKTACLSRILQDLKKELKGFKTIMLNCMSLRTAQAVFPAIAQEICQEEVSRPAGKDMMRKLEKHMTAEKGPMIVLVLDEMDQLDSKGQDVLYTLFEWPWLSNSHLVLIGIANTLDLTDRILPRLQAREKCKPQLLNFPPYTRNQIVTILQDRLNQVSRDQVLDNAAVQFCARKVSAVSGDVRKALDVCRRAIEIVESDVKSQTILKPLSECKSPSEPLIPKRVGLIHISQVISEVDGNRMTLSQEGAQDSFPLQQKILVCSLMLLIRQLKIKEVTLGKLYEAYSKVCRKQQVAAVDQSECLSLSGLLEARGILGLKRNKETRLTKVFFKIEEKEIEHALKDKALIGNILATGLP

[2] = biological target: T2, overexpressed CDC6 (Figure 2C) (UniProt Q99741); experiment: co-IP; soluble extracts from transfected HEK293T cells; first immunoprecipitation with anti-Flag, elution with Flag peptide, second immunoprecipitation with anti-T7; immunoblotting
T2 sequence: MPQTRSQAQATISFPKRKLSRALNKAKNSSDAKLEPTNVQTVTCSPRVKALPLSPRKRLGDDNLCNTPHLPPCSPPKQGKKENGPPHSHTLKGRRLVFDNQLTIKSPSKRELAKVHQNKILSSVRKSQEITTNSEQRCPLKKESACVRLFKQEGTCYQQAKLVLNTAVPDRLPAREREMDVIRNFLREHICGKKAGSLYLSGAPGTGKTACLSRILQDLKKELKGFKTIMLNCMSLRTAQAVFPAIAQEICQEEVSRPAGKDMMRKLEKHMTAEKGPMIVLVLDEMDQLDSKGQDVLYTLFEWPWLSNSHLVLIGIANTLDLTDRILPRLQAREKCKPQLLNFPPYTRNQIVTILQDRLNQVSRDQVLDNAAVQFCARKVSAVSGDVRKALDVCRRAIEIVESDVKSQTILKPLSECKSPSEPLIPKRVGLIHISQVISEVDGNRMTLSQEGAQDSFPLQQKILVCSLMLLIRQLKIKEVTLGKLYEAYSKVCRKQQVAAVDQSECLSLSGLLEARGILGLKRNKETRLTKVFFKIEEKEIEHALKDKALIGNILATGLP

GST-CDC6 = biological target: T3, GST-CDC6 (UniProt Q99741); experiment: pull-down; GST-Cdt1, GST-CDC6 or GST incubated with bacterially produced GRWD1 or its truncated mutants; collected on glutathione beads; immunoblotting with anti-GRWD1 or anti-GST; both purified
T3 sequence: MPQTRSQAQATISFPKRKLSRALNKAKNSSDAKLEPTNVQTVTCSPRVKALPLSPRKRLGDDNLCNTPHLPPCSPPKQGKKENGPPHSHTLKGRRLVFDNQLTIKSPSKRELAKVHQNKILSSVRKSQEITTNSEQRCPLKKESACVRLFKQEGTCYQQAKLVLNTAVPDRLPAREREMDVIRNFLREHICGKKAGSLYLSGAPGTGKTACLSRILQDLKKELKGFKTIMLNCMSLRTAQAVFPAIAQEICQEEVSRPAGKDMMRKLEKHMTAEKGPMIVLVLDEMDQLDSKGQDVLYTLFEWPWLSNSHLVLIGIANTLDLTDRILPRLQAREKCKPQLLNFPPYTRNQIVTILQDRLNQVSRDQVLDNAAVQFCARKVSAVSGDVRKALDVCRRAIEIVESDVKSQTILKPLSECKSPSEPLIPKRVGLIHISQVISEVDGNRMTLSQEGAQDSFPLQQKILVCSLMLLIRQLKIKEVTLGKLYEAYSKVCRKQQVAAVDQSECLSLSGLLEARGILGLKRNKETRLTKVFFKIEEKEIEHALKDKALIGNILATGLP

[3] = biological target: endogenous GRWD1 (glutamate-rich WD40 repeat containing 1) (human (endogenous in HEK293T)) (UniProt Q9BQ67); experiment: co-IP; HEK293T cells transfected with empty or T7-Cdt1 expression vectors; immunoprecipitated with anti-GRWD1 antibody or control rabbit IgG; immunoblotting

## endogenous GRWD1 (glutamate-rich WD40 repeat containing 1) (from UniProt Q9BQ67 1-446)
[1]
  binding: binds

## overexpressed GRWD1 (Figure 2C) (from UniProt Q9BQ67 1-446)
[2]
  binding: binds

## bacterially produced full length GRWD1 (from UniProt Q9BQ67 1-446)
GST-CDC6
  binding: binds

B1: endogenous CDC6 (protein, UniProt Q99741 1-560)
chain: MPQTRSQAQATISFPKRKLSRALNKAKNSSDAKLEPTNVQTVTCSPRVKALPLSPRKRLGDDNLCNTPHLPPCSPPKQGKKENGPPHSHTLKGRRLVFDNQLTIKSPSKRELAKVHQNKILSSVRKSQEITTNSEQRCPLKKESACVRLFKQEGTCYQQAKLVLNTAVPDRLPAREREMDVIRNFLREHICGKKAGSLYLSGAPGTGKTACLSRILQDLKKELKGFKTIMLNCMSLRTAQAVFPAIAQEICQEEVSRPAGKDMMRKLEKHMTAEKGPMIVLVLDEMDQLDSKGQDVLYTLFEWPWLSNSHLVLIGIANTLDLTDRILPRLQAREKCKPQLLNFPPYTRNQIVTILQDRLNQVSRDQVLDNAAVQFCARKVSAVSGDVRKALDVCRRAIEIVESDVKSQTILKPLSECKSPSEPLIPKRVGLIHISQVISEVDGNRMTLSQEGAQDSFPLQQKILVCSLMLLIRQLKIKEVTLGKLYEAYSKVCRKQQVAAVDQSECLSLSGLLEARGILGLKRNKETRLTKVFFKIEEKEIEHALKDKALIGNILATGLP
[3]
  binding: binds
